Measured values reported in article doi:10.1101/585604.
These are yes or no findings as the source states them, for the method shown. Binding seen in cells or lysates may run through a third protein. A yes stands for co-enrichment or nearness to the bait. Other partners may have been found. For part of these data: A no says only that the protein was not detected with the bait. For part of these data: Sequences can lack the tags named with a protein. Values belong to the molecule of their own block, whether it stands above or below them.

Chains of the proteins cited; added tags and fusions are not shown.
UniProt Q92793: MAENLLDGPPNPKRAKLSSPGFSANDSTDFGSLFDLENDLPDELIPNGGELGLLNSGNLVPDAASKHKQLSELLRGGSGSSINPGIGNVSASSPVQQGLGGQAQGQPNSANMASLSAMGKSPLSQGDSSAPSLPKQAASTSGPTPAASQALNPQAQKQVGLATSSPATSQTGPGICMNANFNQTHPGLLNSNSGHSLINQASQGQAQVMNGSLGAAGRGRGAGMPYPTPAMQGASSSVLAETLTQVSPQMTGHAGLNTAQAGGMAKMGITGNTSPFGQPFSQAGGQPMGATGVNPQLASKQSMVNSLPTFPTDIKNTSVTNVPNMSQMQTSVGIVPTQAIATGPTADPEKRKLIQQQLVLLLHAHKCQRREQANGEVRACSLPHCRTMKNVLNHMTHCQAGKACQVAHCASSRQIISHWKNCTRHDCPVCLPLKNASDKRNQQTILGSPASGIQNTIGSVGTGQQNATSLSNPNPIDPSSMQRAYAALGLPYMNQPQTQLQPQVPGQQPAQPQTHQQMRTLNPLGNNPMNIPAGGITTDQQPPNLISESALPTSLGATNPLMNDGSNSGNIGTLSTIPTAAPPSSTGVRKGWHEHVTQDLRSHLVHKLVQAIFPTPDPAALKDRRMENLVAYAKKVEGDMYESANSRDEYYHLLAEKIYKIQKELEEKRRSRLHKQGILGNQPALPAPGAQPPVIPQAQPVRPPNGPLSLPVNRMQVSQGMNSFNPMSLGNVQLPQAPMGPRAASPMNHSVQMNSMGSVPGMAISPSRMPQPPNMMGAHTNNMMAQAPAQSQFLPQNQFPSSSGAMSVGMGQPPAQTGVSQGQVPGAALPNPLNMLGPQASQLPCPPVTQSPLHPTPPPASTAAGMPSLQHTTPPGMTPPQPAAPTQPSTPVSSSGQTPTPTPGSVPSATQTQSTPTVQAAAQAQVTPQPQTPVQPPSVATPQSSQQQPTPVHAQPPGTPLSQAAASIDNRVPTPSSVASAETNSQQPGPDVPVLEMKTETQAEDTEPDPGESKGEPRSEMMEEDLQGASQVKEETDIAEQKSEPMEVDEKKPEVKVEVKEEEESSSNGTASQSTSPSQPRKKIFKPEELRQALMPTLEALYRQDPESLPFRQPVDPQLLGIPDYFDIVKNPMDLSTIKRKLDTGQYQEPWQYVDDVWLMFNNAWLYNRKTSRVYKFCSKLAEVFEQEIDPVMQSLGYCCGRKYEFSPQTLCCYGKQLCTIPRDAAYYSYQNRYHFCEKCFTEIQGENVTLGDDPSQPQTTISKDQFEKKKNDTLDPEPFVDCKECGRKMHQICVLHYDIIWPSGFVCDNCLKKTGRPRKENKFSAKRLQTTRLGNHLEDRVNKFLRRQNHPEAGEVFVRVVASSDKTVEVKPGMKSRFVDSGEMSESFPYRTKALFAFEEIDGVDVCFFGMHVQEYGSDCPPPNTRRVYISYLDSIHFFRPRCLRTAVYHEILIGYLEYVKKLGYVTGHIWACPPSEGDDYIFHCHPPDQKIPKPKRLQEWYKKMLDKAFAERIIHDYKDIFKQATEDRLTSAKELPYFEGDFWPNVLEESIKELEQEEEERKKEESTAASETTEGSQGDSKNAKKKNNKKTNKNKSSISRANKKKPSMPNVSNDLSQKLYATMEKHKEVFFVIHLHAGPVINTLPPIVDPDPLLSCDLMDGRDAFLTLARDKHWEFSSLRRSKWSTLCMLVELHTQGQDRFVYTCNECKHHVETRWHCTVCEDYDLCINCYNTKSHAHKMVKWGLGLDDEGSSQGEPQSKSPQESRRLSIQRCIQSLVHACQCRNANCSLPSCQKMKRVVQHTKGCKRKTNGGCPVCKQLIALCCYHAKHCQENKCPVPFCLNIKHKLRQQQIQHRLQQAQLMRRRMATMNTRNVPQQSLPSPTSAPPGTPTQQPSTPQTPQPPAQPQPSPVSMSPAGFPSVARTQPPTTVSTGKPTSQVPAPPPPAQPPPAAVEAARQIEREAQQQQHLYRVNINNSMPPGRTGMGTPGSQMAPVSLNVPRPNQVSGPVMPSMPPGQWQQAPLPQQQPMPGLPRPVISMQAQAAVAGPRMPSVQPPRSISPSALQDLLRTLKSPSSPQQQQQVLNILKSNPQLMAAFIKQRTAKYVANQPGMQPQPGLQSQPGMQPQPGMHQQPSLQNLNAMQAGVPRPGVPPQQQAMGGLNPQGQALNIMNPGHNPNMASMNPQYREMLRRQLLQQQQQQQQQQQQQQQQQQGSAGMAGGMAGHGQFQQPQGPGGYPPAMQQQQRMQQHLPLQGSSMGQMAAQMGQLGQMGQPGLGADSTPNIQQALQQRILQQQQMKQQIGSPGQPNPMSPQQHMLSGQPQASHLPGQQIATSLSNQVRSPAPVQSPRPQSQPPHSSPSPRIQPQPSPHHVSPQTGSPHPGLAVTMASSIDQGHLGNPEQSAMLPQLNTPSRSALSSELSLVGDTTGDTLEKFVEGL
UniProt Q7Z5L9: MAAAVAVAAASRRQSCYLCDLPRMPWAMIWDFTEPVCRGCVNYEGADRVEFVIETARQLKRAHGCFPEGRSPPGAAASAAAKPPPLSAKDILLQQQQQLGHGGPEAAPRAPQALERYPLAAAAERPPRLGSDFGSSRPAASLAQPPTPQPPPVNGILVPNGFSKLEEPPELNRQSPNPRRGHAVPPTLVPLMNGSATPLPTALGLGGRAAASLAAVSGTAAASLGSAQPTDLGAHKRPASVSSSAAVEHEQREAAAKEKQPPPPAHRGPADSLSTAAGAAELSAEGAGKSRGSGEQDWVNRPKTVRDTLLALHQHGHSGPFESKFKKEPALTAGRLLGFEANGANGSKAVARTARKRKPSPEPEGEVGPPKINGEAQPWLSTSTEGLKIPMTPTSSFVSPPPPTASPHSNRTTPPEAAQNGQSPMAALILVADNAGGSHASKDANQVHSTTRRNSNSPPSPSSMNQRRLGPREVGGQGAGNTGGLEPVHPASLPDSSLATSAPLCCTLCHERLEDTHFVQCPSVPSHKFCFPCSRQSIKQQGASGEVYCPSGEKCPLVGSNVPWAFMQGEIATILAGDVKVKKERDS
UniProt Q15788: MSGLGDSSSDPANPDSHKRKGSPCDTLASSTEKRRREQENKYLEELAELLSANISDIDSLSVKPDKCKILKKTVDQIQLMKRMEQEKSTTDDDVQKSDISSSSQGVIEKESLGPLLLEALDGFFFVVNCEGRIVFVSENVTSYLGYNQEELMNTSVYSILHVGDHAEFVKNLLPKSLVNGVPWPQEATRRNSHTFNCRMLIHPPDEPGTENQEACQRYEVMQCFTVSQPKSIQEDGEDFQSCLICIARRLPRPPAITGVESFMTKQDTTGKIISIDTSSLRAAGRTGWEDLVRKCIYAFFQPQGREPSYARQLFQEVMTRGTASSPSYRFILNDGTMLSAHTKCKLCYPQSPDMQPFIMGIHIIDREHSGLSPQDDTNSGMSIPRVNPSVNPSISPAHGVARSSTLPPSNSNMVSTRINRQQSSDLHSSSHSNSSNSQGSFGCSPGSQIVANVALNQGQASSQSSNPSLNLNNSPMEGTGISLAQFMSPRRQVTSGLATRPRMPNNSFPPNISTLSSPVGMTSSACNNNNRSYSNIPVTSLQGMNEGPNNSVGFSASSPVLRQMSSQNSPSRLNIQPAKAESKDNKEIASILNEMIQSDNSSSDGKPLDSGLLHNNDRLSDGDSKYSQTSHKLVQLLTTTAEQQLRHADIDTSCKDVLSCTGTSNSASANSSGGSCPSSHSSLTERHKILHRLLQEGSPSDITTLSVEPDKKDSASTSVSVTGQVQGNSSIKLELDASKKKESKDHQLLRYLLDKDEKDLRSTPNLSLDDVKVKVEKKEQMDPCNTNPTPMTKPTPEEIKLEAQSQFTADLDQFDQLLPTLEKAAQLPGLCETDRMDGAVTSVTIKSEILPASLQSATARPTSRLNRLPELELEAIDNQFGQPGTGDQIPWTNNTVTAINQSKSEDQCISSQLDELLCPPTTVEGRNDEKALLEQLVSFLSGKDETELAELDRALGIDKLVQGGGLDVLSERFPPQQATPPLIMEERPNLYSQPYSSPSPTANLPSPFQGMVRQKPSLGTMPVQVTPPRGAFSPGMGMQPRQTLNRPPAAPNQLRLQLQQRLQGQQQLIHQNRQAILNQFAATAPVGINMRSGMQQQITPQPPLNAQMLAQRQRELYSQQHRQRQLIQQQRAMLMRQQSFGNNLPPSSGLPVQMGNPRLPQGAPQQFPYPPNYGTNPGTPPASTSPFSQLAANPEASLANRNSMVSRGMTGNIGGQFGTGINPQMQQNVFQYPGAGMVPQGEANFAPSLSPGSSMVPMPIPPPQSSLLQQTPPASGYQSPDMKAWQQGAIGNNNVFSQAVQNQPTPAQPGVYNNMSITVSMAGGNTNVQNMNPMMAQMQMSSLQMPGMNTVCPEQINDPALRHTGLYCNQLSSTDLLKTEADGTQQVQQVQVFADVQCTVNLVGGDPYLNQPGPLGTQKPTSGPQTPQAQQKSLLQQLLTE

Key:
Test in all cases: proximity labelling
[1] = biological target: HNF4α7-BioID2-3myc (human) (UniProt P41235)
[2] = biological target: HNF4α8-BioID2-3myc (human) (UniProt P41235)
[3] = biological target: T1, HNF4α5-BioID2-3myc (human) (UniProt P41235)
T1 sequence: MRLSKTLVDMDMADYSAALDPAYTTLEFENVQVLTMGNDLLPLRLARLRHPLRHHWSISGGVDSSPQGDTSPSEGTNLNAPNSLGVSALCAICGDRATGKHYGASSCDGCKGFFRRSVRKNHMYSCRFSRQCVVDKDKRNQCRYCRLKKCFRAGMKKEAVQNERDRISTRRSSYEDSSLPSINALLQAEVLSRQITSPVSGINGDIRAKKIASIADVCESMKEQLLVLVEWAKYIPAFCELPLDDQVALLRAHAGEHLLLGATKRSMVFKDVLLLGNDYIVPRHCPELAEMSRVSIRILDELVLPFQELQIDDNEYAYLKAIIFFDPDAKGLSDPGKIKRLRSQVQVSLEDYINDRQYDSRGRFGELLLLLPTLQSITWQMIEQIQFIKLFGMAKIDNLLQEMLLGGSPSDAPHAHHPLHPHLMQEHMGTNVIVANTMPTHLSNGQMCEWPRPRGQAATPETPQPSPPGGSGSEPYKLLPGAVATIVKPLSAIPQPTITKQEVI

[4] = biological target: HNF4α4-BioID2-3myc (human) (UniProt P41235)
[5] = biological target: T2, HNF4α3-BioID2-3myc (human) (UniProt P41235)
T2 sequence: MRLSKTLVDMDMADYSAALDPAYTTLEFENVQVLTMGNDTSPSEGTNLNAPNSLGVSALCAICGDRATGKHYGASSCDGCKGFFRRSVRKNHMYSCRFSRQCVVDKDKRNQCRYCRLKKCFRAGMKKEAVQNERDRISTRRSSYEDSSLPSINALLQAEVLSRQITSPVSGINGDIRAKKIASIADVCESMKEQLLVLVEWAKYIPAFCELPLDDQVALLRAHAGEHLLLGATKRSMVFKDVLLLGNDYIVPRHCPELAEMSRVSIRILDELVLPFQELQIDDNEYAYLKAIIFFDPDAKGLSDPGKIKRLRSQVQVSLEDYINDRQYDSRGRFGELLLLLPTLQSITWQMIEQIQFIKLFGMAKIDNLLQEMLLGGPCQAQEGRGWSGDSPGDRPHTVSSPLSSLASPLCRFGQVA

[6] = biological target: T3, HNF4α9-BioID2-3myc (human) (UniProt P41235)
T3 sequence: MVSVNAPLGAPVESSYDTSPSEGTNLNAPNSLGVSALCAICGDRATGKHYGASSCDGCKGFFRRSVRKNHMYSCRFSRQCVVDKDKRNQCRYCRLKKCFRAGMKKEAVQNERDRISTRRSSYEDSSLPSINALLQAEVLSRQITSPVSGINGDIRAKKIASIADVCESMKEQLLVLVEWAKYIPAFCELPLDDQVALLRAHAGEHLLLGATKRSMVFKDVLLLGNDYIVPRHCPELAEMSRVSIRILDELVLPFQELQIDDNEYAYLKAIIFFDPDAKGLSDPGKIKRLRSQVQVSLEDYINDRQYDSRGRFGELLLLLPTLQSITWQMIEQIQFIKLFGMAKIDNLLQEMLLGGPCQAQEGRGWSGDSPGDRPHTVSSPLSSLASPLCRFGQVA

[7] = biological target: HNF4α6-BioID2-3myc (human)
[8] = biological target: HNF4α12-BioID2-3myc (human)
[9] = biological target: HNF4α1-BioID2-3myc (human)
[10] = biological target: HNF4α10-BioID2-3myc (human)
[11] = biological target: HNF4α2-BioID2-3myc (human)
[12] = biological target: HNF4α11-BioID2-3myc (human)

binding [1]: binds
binding [2]: binds
binding [3]: binds
binding [4]: binds
binding [5]: binds
binding [6]: binds
Molecule: CBP (from UniProt Q92793 1-2442)

binding [5]: no binding
binding [6]: no binding
Molecule: IRF-2BP2 (from UniProt Q7Z5L9 1-587)

binding [1]: binds
binding [2]: binds
binding [3]: binds
binding [4]: binds
binding [5]: binds
binding [6]: binds
Molecule: NCOA-1 (from UniProt Q15788 1-1441)

binding [4]: binds
B1: HNF4γ (protein, UniProt Q14541 1-408)
chain: MNTTDNGVNCLCAICGDRATGKHYGASSCDGCKGFFRRSIRKSHVYSCRFSRQCVVDKDKRNQCRYCRLRKCFRAGMKKEAVQNERDRISTRRSTFDGSNIPSINTLAQAEVRSRQISVSSPGSSTDINVKKIASIGDVCESMKQQLLVLVEWAKYIPAFCELPLDDQVALLRAHAGEHLLLGATKRSMMYKDILLLGNNYVIHRNSCEVEISRVANRVLDELVRPFQEIQIDDNEYACLKAIVFFDPDAKGLSDPVKIKNMRFQVQIGLEDYINDRQYDSRGRFGELLLLLPTLQSITWQMIEQIQFVKLFGMVKIDNLLQEMLLGGASNDGSHLHHPMHPHLSQDPLTGQTILLGPMSTLVHADQISTPETPLPSPPQGSGQEQYKIAANQASVISHQHLSKQKQL

binding [7]: binds
binding [1]: binds
binding [2]: binds
binding [8]: binds
binding [9]: binds
binding [10]: binds
binding [11]: binds
binding [12]: binds
binding [3]: binds
binding [4]: binds
binding [5]: binds
binding [6]: binds
B2: FOSL1 (protein, UniProt P15407 1-271)
chain: MFRDFGEPGPSSGNGGGYGGPAQPPAAAQAAQQKFHLVPSINTMSGSQELQWMVQPHFLGPSSYPRPLTYPQYSPPQPRPGVIRALGPPPGVRRRPCEQISPEEEERRRVRRERNKLAAAKCRNRRKELTDFLQAETDKLEDEKSGLQREIEELQKQKERLELVLEAHRPICKIPEGAKEGDTGSTSGTSSPPAPCRPVPCISLSPGPVLEPEALHTPTLMTTPSLTPFTPSLVFTYPSTPEPCASAHRKSSSSSGDPSSDPLGSPTLLAL
